Here are results for 10 molecules from PubChem BioAssay AID192 (DTP/NCI, 2004).

The assay concerns BDF1 mice, B16 melanoma ip, median survival T/C. Kind of assay: NCI In Vivo Anticancer Drug Screen. Data for tumor model B16 Melanoma (intraperitoneal) in B6D2F1 (BDF1) mice. The note with it: T/C endpoint: median survival time, higher T/C = longer survival. In outline: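 Each result divides a survival or tumor-size measurement in the compound-treated group by the same measurement in the vehicle group.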

Setting [1] is: dose: 100.0 mg/kg/injection, schedule: Q01DX009 (ip), vehicle: saline with Tween-80.
Setting [2] is: dose: 25.0 mg/kg/injection, schedule: Q01DX009 (ip), vehicle: saline.
The mark [3] stands for this setting: dose: 50.0 mg/kg/injection, schedule: Q01DX009 (ip), vehicle: saline.
Where [4] appears, read: dose: 0.5 mg/kg/injection, schedule: Q01DX009 (ip), vehicle: Klucel (hydroxypropylcellulose) (HPC).
[5] abbreviates: dose: 1.0 mg/kg/injection, schedule: Q01DX009 (ip), vehicle: Klucel (hydroxypropylcellulose) (HPC).
The mark [6] stands for this setting: dose: 2.0 mg/kg/injection, schedule: Q01DX009 (ip), vehicle: Klucel (hydroxypropylcellulose) (HPC).
Where [7] appears, read: dose: 4.0 mg/kg/injection, schedule: Q01DX009 (ip), vehicle: Klucel (hydroxypropylcellulose) (HPC).
[8] abbreviates: dose: 8.0 mg/kg/injection, schedule: Q01DX009 (ip), vehicle: Klucel (hydroxypropylcellulose) (HPC).
[9] abbreviates: dose: 16.0 mg/kg/injection, schedule: Q01DX009 (ip), vehicle: Klucel (hydroxypropylcellulose) (HPC).
[10] abbreviates: dose: 32.0 mg/kg/injection, schedule: Q01DX009 (ip), vehicle: saline with Tween-80.
Setting [11] is: dose: 64.0 mg/kg/injection, schedule: Q01DX009 (ip), vehicle: saline with Tween-80.

The list does not hold the whole screen: it gathers some chemical classes. Not every dose and run of a compound is shown. T/C gives the treated animals as a percentage of the vehicle group. Some doses have a count of surviving animals in place of a T/C: the source holds a T/C of zero for them, seemingly a mark for toxic or unscored doses. Some doses without a T/C left all or most animals alive at the check, yet need not have been tolerated: the source hardly ever lists a survival T/C far under the control, and the zero likely stands for such cases as well. Counts of survivors are from the toxicity check (mostly the fifth day) where no day follows; animals may have died later. Schedules are NCI's codes, taken here to give the interval after Q, in days (D) or hours (H), and the number of doses after X. Where survival is the endpoint, this PubChem deposit counts one and a half times the control or more as active, and values a quarter to a half above the control carry no call in these data; other NCI protocols may use other cut-offs. Some doses were run more than once; their values stand side by side, smallest first. Some T/C values carry the count of animals alive at the toxicity check (mostly the fifth day); where neither a count nor a note follows, no animal had died by that day.

With `CC1CN1P(=O)(Nc1ccccn1)N1CC1C` (stereo not drawn), the T/C is, setting by setting: (dose: 12.5 mg/kg/injection, schedule: Q01DX009 (ip), vehicle: saline with Tween-80) 97 % of control; (dose: 25.0 mg/kg/injection, schedule: Q01DX009 (ip), vehicle: saline with Tween-80) 105 % of control [9 of 10 alive]; (dose: 25.0 mg/kg/injection, schedule: Q04DX003 (ip), vehicle: saline with Tween-80) 98 % of control; (dose: 50.0 mg/kg/injection, schedule: Q01DX009 (ip), vehicle: saline with Tween-80) 100 % of control; (dose: 50.0 mg/kg/injection, schedule: Q04DX003 (ip), vehicle: saline with Tween-80) 138 % of control; (dose: 100.0 mg/kg/injection, schedule: Q04DX003 (ip), vehicle: saline with Tween-80) 95 and 119 % of control. In addition, the survivor count is 10 of 10 under setting [1]; 9 of 10 (dose: 200.0 mg/kg/injection, schedule: Q04DX003 (ip), vehicle: saline with Tween-80); 0 of 10 (dose: 400.0 mg/kg/injection, schedule: Q04DX003 (ip), vehicle: saline with Tween-80).
As to `CC[C@H](C)[C@@H]1NC(=O)/C(=C(\C)O)C1=O`, the T/C is 97 % of control (dose: 12.5 mg/kg/injection, schedule: Q01DX009 (ip), vehicle: saline); 107 % of control (dose: 12.5 mg/kg/injection, schedule: Q04DX003 (ip), vehicle: saline); 94 % of control under setting [2]; 96 % of control (dose: 25.0 mg/kg/injection, schedule: Q04DX003 (ip), vehicle: saline); 100 % of control under setting [3]; 103 % of control [6 of 8 alive] (dose: 50.0 mg/kg/injection, schedule: Q04DX003 (ip), vehicle: saline). For the same molecule, the survivor count runs as follows: (dose: 100.0 mg/kg/injection, schedule: Q04DX003 (ip), vehicle: saline) 3 of 8; (dose: 200.0 mg/kg/injection, schedule: Q04DX003 (ip), vehicle: saline) 0 of 8.
Take `Cc1cc(N(CCCl)CCCl)ccc1N`: the T/C by setting is: (dose: 0.13 mg/kg/injection, schedule: Q01DX009 (ip), vehicle: Klucel (hydroxypropylcellulose) (HPC)) 107 % of control; (dose: 0.25 mg/kg/injection, schedule: Q01DX009 (ip), vehicle: Klucel (hydroxypropylcellulose) (HPC)) 108 % of control; under setting [4], 119 % of control; under setting [5], 128 % of control; under setting [6], 142 % of control. For the same molecule, under setting [7], the survivor count was 10 of 10.
As to `COC(=O)c1ccc(N2CCOP2(=O)Cl)cc1O` (stereo not drawn), the T/C under setting [1] was 97 % of control [9 of 10 alive]. The survivor count is on record as 8 of 10 (dose: 200.0 mg/kg/injection, schedule: Q01DX009 (ip), vehicle: saline with Tween-80) and 0 of 10 (dose: 400.0 mg/kg/injection, schedule: Q01DX009 (ip), vehicle: saline with Tween-80).
On to `NC1CCCCC1.O=P(O)(NCCCO)N(CCCl)CCCl`, for which the T/C under setting [2] was 128 % of control; the T/C under setting [3] is 159 % of control; the T/C (dose: 100.0 mg/kg/injection, schedule: Q01DX009 (ip), vehicle: saline) is 219 % of control. Moreover, the survivor count is, setting by setting: (dose: 200.0 mg/kg/injection, schedule: Q01DX009 (ip), vehicle: saline) 6 of 6; (dose: 400.0 mg/kg/injection, schedule: Q01DX009 (ip), vehicle: saline) 0 of 6.
On to `C[As](C)SC1OC(CO)C(O)C(O)C1O` (stereo not drawn), for which the T/C reads like this: (dose: 12.5 mg/kg/injection, schedule: Q01DX009 (ip), vehicle: Klucel (hydroxypropylcellulose) (HPC)) 98 % of control [8 of 10 alive]; (dose: 25.0 mg/kg/injection, schedule: Q01DX009 (ip), vehicle: Klucel (hydroxypropylcellulose) (HPC)) 109 % of control. In addition, the survivor count (dose: 50.0 mg/kg/injection, schedule: Q01DX009 (ip), vehicle: Klucel (hydroxypropylcellulose) (HPC)) was 4 of 10.
`Oc1ccc(N(CCCl)CCCl)cc1`: the T/C runs as follows: under setting [4], 109 % of control; under setting [5], 87 [9 of 10 alive] and 111 % of control; under setting [6], 122 and 128 % of control; under setting [7], 146 and 149 % of control; under setting [8], 147 % of control. Also, the survivor count reads like this: under setting [8], 9 of 10; under setting [9], 10 of 10.
As to `COc1ccc(O)c2c(=O)c3c(OC)cc4c(c3oc12)[C@@H]1C=CO[C@@H]1O4`, the T/C runs as follows: under setting [7], 118 % of control; (dose: 4.0 mg/kg/injection, schedule: Q01DX009 (ip), vehicle: saline with Tween-80, evaluated on day 45) 164 % of control; (dose: 4.0 mg/kg/injection, schedule: Q01DX009 (ip), vehicle: saline with Tween-80, evaluated on day 60) 116 % of control; under setting [8], 118 % of control; (dose: 8.0 mg/kg/injection, schedule: Q01DX009 (ip), vehicle: saline with Tween-80, evaluated on day 45) 145 % of control; (dose: 8.0 mg/kg/injection, schedule: Q01DX009 (ip), vehicle: saline with Tween-80, evaluated on day 60) 118 % of control. Further, the T/C reads like this: under setting [9], 134 % of control [9 of 10 alive]; (dose: 16.0 mg/kg/injection, schedule: Q01DX009 (ip), vehicle: saline with Tween-80, evaluated on day 45) 152 % of control; (dose: 16.0 mg/kg/injection, schedule: Q01DX009 (ip), vehicle: saline with Tween-80, evaluated on day 60) 135 % of control; (dose: 32.0 mg/kg/injection, schedule: Q01DX009 (ip), vehicle: Klucel (hydroxypropylcellulose) (HPC)) 134 % of control; under setting [10], 134 % of control; under setting [11], 132 % of control. The survivor count runs as follows: under setting [10], 6 of 6; (dose: 64.0 mg/kg/injection, schedule: Q01DX009 (ip), vehicle: Klucel (hydroxypropylcellulose) (HPC)) 10 of 10; under setting [11], 5 of 6; (dose: 128.0 mg/kg/injection, schedule: Q01DX009 (ip), vehicle: Klucel (hydroxypropylcellulose) (HPC)) 10 of 10; (dose: 256.0 mg/kg/injection, schedule: Q01DX009 (ip), vehicle: Klucel (hydroxypropylcellulose) (HPC)) 4 of 10.
As for `CC1CCN(CCCOC(=O)C(O)(c2ccccc2)c2ccccc2)CCN1C` (stereo not drawn), the T/C reads like this: (dose: 1.56 mg/kg/injection, schedule: Q01DX009 (ip), vehicle: saline) 118 % of control; (dose: 3.12 mg/kg/injection, schedule: Q01DX009 (ip), vehicle: saline) 102 % of control.
`COP(OC)c1ccc(C)cc1`: the T/C (dose: 100.0 mg/kg/injection, schedule: Q01DX009 (ip), vehicle: Klucel (hydroxypropylcellulose) (HPC)) was 105 % of control; the T/C (dose: 200.0 mg/kg/injection, schedule: Q01DX009 (ip), vehicle: Klucel (hydroxypropylcellulose) (HPC)) is 118 % of control; the T/C (dose: 400.0 mg/kg/injection, schedule: Q01DX009 (ip), vehicle: Klucel (hydroxypropylcellulose) (HPC)) was 102 % of control [9 of 10 alive].
